At least one compound was matched to its structure with a doubt left.
System: rat femoral vein
Assay: Vasodilation of isolated rat femoral vein contracted with PGF2α (organ bath)
Details: endothelium removed; PGF2α 3×10^-5 M; test substance 10^-5 M; FIG. 8b
Method: This effect was also shown by observing vasodilation as a result of stimulation of the rat femoral vein with the above agonist. Adult Sprague-Dawley rats were killed by exsanguination during diethylether anesthesia and the femoral vein was removed and dissected free from fat and connective tissue. Circular preparations of the vein were mounted in an organ bath (5 ml) on two L-formed metal holders (0.2 mm diameter). One of the metal holders was screwed into one of the levers of a Grass FTO C force displacement transducer. The bathing liquid was Kreb's Ringer solution containing 118 mM NaCl, 4.7 mM KCl, 2.5 mM CaCl2, 1.2 MM MgSO4, 24.8 mM NaHCO3, 1.2 mM KH2 PO4 and 5.6 mM glucose. The bathing fluid was continuously treated with 88.5% oxygen-11.5% CO2; the temperature was held at 37° C. The endothelium was removed by bubbling CO2 through the vessels. The basal tension was between 7.5 and 12 mN. The preparations were equilibrated for at least 1 hr before application of agonist and control substances.

Compound: CC(=O)OCC[N+](C)(C)C [acetylcholine, reference compound]
- Effect on contraction induced by PGF2α: not counteracted
